Data as given in paper doi:10.1101/2021.06.08.447242.

By UniProt entry, the sequences of proteins in these tests, tags left out.
UniProt P16403: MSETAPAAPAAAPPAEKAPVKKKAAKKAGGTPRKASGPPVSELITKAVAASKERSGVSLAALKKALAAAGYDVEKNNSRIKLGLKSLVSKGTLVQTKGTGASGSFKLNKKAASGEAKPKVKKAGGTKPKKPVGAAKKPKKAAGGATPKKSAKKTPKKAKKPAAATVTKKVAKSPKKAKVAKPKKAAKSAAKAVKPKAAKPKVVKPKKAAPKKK
UniProt Q6ZN18: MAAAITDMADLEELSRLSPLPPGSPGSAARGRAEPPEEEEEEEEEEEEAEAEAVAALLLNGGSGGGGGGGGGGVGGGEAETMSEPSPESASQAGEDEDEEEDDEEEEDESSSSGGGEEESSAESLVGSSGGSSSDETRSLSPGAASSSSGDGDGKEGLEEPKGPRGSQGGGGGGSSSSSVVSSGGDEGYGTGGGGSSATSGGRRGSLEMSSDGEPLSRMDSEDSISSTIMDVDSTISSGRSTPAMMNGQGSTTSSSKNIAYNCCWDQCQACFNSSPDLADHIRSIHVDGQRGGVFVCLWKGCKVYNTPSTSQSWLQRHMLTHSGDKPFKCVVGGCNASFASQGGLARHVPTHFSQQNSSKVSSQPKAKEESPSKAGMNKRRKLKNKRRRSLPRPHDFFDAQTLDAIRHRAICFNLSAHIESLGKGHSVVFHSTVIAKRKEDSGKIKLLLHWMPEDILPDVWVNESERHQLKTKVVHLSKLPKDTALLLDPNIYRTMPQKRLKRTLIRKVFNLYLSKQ
UniProt Q9UBL3: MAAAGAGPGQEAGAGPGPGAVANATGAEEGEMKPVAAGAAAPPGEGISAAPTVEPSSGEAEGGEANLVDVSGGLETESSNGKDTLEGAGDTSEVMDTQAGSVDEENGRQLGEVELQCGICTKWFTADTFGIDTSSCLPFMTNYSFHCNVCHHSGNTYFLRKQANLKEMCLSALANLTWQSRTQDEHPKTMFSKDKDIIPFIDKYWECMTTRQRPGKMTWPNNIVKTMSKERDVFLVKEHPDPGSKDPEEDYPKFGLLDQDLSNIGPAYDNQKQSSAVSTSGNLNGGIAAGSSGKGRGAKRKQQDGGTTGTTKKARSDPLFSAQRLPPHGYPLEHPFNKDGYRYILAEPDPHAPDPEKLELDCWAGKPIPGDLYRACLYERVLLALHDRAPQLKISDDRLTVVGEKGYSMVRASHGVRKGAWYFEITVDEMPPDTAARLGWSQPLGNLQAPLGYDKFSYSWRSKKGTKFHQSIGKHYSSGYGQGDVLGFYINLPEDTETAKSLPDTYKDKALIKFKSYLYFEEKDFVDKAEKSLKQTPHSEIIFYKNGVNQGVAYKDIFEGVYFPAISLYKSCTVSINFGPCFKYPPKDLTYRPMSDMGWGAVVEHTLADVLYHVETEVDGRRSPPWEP
UniProt Q9P0U4: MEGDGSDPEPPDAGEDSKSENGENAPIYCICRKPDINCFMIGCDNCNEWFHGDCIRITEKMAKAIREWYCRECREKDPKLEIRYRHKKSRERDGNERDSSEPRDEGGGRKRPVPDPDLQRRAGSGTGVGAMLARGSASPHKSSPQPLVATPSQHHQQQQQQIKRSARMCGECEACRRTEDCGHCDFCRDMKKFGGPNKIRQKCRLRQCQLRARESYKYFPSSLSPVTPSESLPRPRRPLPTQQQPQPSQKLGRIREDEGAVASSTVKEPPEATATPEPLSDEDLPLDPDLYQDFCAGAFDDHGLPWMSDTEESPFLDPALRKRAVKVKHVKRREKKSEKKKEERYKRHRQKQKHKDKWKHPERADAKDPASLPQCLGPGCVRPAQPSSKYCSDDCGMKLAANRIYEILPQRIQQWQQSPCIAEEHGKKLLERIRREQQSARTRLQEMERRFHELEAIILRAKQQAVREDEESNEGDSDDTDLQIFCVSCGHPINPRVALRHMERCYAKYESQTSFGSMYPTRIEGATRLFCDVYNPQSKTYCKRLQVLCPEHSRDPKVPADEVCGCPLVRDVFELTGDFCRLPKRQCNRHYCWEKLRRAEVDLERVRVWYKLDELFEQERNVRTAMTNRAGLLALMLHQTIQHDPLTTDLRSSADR
UniProt Q01105: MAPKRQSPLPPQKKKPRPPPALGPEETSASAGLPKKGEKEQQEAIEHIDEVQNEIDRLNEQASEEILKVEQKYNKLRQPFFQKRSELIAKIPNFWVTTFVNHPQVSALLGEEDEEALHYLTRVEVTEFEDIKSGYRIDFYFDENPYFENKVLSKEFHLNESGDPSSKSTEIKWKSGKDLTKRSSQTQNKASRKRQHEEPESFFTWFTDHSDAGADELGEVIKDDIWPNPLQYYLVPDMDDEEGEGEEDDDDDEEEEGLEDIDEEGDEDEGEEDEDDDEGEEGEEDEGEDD
UniProt Q15022: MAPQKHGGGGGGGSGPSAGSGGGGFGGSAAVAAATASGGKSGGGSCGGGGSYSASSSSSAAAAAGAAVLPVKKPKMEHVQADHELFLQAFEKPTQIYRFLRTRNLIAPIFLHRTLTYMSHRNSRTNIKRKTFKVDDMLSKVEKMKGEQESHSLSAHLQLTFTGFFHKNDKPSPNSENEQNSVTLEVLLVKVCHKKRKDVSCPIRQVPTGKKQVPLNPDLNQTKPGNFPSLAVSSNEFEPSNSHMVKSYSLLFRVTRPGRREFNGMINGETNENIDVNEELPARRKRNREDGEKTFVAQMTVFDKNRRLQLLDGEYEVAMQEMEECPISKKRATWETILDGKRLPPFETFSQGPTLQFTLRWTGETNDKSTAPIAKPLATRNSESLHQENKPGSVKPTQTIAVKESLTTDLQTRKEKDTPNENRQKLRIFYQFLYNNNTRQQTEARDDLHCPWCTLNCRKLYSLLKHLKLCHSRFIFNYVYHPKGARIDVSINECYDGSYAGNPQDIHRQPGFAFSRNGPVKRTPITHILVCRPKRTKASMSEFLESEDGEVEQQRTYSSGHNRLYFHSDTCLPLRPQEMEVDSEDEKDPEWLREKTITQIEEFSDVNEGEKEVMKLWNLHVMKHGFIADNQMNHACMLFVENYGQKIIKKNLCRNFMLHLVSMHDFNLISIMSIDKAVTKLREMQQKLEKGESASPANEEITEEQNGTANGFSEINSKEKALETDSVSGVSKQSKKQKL

B1: ASCC2 (protein, UniProt Q9H1I8 1-757)
chain: MPALPLDQLQITHKDPKTGKLRTSPALHPEQKADRYFVLYKPPPKDNIPALVEEYLERATFVANDLDWLLALPHDKFWCQVIFDETLQKCLDSYLRYVPRKFDEGVASAPEVVDMQKRLHRSVFLTFLRMSTHKESKDHFISPSAFGEILYNNFLFDIPKILDLCVLFGKGNSPLLQKMIGNIFTQQPSYYSDLDETLPTILQVFSNILQHCGLQGDGANTTPQKLEERGRLTPSDMPLLELKDIVLYLCDTCTTLWAFLDIFPLACQTFQKHDFCYRLASFYEAAIPEMESAIKKRRLEDSKLLGDLWQRLSHSRKKLMEIFHIILNQICLLPILESSCDNIQGFIEEFLQIFSSLLQEKRFLRDYDALFPVAEDISLLQQASSVLDETRTAYILQAVESAWEGVDRRKATDAKDPSVIEEPNGEPNGVTVTAEAVSQASSHPENSEEEECMGAAAAVGPAMCGVELDSLISQVKDLLPDLGEGFILACLEYYHYDPEQVINNILEERLAPTLSQLDRNLDREMKPDPTPLLTSRHNVFQNDEFDVFSRDSVDLSRVHKGKSTRKEENTRSLLNDKRAVAAQRQRYEQYSVVVEEVPLQPGESLPYHSVYYEDEYDDTYDGNQVGANDADSDDELISRRPFTIPQVLRTKVPREGQEEDDDDEEDDADEEAPKPDHFVQDPAVLREKAEARRMAFLAKKGYRHDSSTAVAGSPRGHGQSRETTQERRKKEANKATRANHNRRTMADRKRSKGMIPS

Assays:
Assay in all cases: affinity purification with mass spectrometry
[1] = target: H1.2 K17Ac (H1.2 acetylated at lysine 17) (human) (UniProt P16403)
[2] = target: linker histone H1.2 (unmodified) (human) (UniProt P16403)
[3] = target: H1.2 K64Ac (H1.2 acetylated at lysine 64) (human) (UniProt P16403)
[4] = target: H1.2 K17K64Ac (H1.2 acetylated at lysines 17 and 64) (human) (UniProt P16403)

Molecule | binding [1] | binding [2] | binding [3] | binding [4]
AEBP2 (from UniProt Q6ZN18 1-517) | binds | binds | – | –
ASH2L (from UniProt Q9UBL3 1-628) | binds | binds | – | –
CXXC1 (from UniProt Q9P0U4 1-656) | binds | binds | – | –
SET (from UniProt Q01105 1-290) | binds | binds | binds | binds
SUZ12 (from UniProt Q15022 1-739) | binds | binds | – | –
B1 | binds | – | – | binds

No constants are given. Whether binding was seen depends on the method and setting. In cells and extracts the contact can be indirect. These calls come from enrichment with a bait or labelling near it, and not all partners need be listed.
